Measured values reported in publication PMC12848524.
These are yes or no findings as the source states them, for the method shown. In cells and extracts the contact can be indirect. Some binding calls cover weakened binding; strength is not graded here.

Chains of the proteins cited; added tags and fusions are not shown. Lines headed by an entry give the natural chain unless they say otherwise; changes in a name come on top.
UniProt Q9NP72: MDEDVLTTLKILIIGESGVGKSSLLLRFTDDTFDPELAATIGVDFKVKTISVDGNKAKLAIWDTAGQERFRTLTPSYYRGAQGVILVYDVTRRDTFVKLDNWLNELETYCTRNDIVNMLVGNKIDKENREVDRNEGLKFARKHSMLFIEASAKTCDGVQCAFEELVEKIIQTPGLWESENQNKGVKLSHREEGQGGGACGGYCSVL
UniProt P33175: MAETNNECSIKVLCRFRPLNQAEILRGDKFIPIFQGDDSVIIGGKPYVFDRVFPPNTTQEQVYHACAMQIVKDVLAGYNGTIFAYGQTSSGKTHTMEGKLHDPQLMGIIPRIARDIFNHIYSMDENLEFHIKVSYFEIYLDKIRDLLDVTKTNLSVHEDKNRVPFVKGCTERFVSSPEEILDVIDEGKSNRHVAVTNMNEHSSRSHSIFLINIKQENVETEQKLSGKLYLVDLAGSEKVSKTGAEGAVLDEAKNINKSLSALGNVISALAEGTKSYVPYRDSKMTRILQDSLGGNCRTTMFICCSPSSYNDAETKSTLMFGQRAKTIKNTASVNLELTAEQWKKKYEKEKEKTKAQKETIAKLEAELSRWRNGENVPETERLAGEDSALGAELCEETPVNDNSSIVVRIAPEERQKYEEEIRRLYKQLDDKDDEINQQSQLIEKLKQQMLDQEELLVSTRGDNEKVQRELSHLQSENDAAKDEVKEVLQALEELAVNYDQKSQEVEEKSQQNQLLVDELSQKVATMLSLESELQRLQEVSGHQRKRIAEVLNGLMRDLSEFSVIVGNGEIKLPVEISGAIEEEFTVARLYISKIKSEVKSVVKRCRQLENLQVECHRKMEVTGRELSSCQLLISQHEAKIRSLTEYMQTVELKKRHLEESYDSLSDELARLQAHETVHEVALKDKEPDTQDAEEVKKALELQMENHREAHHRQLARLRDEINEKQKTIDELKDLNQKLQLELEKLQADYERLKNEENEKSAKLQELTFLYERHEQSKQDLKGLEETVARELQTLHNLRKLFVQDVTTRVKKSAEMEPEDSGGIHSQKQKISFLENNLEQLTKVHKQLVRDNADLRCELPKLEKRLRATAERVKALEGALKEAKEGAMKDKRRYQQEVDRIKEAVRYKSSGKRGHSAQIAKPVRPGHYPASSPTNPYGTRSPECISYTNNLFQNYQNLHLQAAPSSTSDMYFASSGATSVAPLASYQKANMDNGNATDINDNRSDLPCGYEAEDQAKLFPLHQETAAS

What was measured:
Experiment in all cases: pull-down; GST-tagged Rab18 (WT, Q67L, S22N) incubated with mouse brain lysates; bound proteins immunoblotted; only the target purified
GST-Rab18 (wild type) = GST-Rab18 (wild type) (UniProt Q9NP72)
GST-Rab18Q67L = GST-Rab18Q67L (UniProt Q9NP72)
GST-Rab18S22N = GST-Rab18S22N (UniProt Q9NP72)

Row | Molecule | binding (GST-Rab18 (wild type)) | binding (GST-Rab18Q67L) | binding (GST-Rab18S22N)
1 | kinesin-1 motor protein KIF5 (KIF5A) (from UniProt P33175 1-1027) | binds | binds | –
2 | neutral sphingomyelinase 2 (nSMase2) (enzyme, UniProt Q9JJY3 1-655) MVLYTTPFPNSCLSALHAVSWALIFPCYWLVDRLLASFIPTTYEKRQRADDPCCLQLFCTVLFTPVYLALLVAALPFAFLGFIFWSPLQSARRPYSYSRLEDKNPAGGAALLSEWKGTGAGKSFCFATANVCLLPDSLARLNNVFNTQARAKEIGQRIRNGAARPQIKIYIDSPTNTSISAASFSSLVSPQGGDGSRAVPGSIKRTASVEYKGDGGRHPSDEAANGPASGEQADGSLEDSCIVRIGGEEGGRPQEADDPAAGSQARNGAGGTPKGQTPNHNQRDGDSGSLGSPSASRESLVKARAGQDSGGSGEPGANSKLLYKTSVVKKAAARRRRHPDEAFDHEVSAFFPANLDFLCLQEVFDKRAAAKLKEQLHGYFEYILYDVGVYGCHGCCNFKCLNSGLFFASRYPVMDVAYHCYPNGCSFDALASKGALFLKVQVGSTPQDQRIVGYIACTHLHAPPEDSAVRCEQLDLLQDWLADFRKSTSSTSTANPEELVVFDVICGDLNFDNCSSDDKLEQQHSLFTRYKDPCRLGPGEEKPWAIGTLLDTNGLYDEDVCTPDNLQKVLESEEGRREYLAFPTSKSPGAGQKGRKDLLKGNGRRIDYMLHAEEGLCPDWKAEVEEFSFITQLSGLTDHLPVAMRLMVSAGEEEA | – | – | binds
